Test results as given in paper PMC6854080, “Increased Mosquito Midgut Infection by Dengue Virus Recruitment of Plasmin Is Blocked by an Endogenous Kazal-type Inhibitor” (iScience, 2019).

Molecular target: T1, recombinant AaTI (Aedes aegypti Kazal-type serine protease inhibitor) (Aedes aegypti) (UniProt Q177W0)
T1 sequence: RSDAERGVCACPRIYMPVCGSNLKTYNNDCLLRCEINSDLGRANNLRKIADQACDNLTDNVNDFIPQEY
Experiment: BLI; Ni-NTA biosensors loaded with rAaTI and immersed in a trypsin solution

trypsin (enzyme)
binding: binds

No constants are given. Whether binding was seen depends on the method and setting. A result given as binding can be weak or reduced; the word gives no strength.
